Several values for one entry are separate records, joined by “and”; a condition that tells them apart may be missing. Equal entries are not always repeated. Hit rate of the full screen: of about 410,000 compounds, about 18,000 (4.4%) were called active. This list was built around the results that the source calls inconclusive (neither active nor inactive); the mix of calls is not that of the screen. No stated cut-off is given here; in the data, active means activity change below about -60%; inconclusive means no clear call, values can overlap the other calls; inactive means above about -39%.
Experiment: qHTS Assay for inhibitors of the human cytomegalovirus (HCMV)
Conditions: HFF cells, HCMV-luciferase reporter, 72 h; at 57.5 µM; hits give low values
Procedure, shortened: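 Human foreskin fibroblasts infected with luciferase-reporter HCMV at MOI 1 PFU/cell, compounds at two doses. Luciferase measured 72 h post infection; normalized to buffer-only basal and Salinomycin (10uM) controls.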
On the % scale 0 is the no-effect control and ±100 the full control effect.

SMILES	activity change, negative = inhibition
COc1ccc(NC(=O)c2sc3nc(C)nc(N4CCN(c5ccccn5)CC4)c3c2C)c(OC)c1	inconclusive: -47.3%
Cc1nc(/C=C\C(=O)O)c2cc(C)oc2n1	inconclusive: -45%
O=c1c2cc(N3CCOCC3)ccc2[nH]c(=S)n1Cc1ccc(Cl)cc1	active: -86.6%
CCCc1nnc(SCC(=O)NC2CC2)n1C	inactive: -19.5%
CCN(c1ccccc1)S(=O)(=O)c1ccc(N2CCN(c3ccc(O)cc3)CC2)nc1	inconclusive: -40.9%
OCCNc1cnc2ccccc2n1	inactive: 53.4%
O=C1NC2(CCCCC2)Cc2ccccc21	inactive: 73.9%
COc1ccccc1NS(=O)(=O)c1cccc(NS(=O)(=O)c2cc(C(=O)O)ccc2OC)c1	active: -102%
COc1ccccc1N1CCN(CCCCN2C(=O)C3CCCN3C2=O)CC1 (configuration not stated)	inactive: 16.6%
CCNc1nc(-c2sc(NC(=O)C(C)(C)C)nc2C)c(-n2cc(-c3ccccc3)nn2)s1	active: -70.4%
CNC[C@H](NC[C@@H](NCCCc1ccccc1)c1ccccc1)[C@H](C)O	inconclusive: -55.1%
O=C(NCc1ccc(Cl)nc1)c1csc([C@@H]2C[C@H](O)[C@@H](CO)O2)n1	inactive: -3.06%
CC1CCCCC1NC(=O)Cn1nnc(-c2ccc(Cl)cc2)n1 (configuration not stated)	inconclusive: -51.6%
Cc1cc(C)c2nc(NC(=O)c3ccc([N+](=O)[O-])o3)sc2c1	inconclusive: -51.5%
Cc1ccc2c(c1)CCCN2C(=O)c1cc2ccccc2oc1=O	inconclusive: -41.4%
COc1ccccc1OCC(O)CN1CCN(CC(=O)Nc2c(C)cccc2C)CC1 (configuration not stated)	inconclusive: -40.4%
Cc1ccc2nc(Cl)c3cc(C(=O)N(CCN(C)C)Cc4ccco4)sc3c2c1	inconclusive: -52.2%
COc1cc(OC)c(NC(=O)c2c3c(nn2C)-c2ccccc2SC3)cc1Cl	inconclusive: -49.6%
CCc1ccccc1Nc1nn2c(=O)c3ccc(C(=O)NC4CCCCC4)cc3nc2s1	inactive: 3.97%
CCN(CCn1cccn1)C(=O)c1cc(COc2cc(C)ccc2C)on1	inactive: 74.9%
O=C(NCCS(=O)(=O)c1ccc(Cl)cc1)c1ccc(F)cc1	inconclusive: -46.5%
CC(C)(O)c1[nH]c2ccc(C#N)cc2c1C(C)(C)O	inactive: -13.1%

SMILES	activity change, negative = inhibition
COc1ccc(CN(C2CC2)S(=O)(=O)c2ccccc2Br)cc1	inconclusive: -41.8%
CCCCn1c(CN2C(=O)c3ccccc3C2=O)nc2ccccc2c1=O	inconclusive: -41.1%
COc1cc([C@@H]2c3cc4c(cc3[C@@H](O[C@@H]3O[C@@H]5CO[C@@H](C)O[C@H]5[C@H](O)[C@H]3O)[C@H]3COC(=O)[C@H]23)OCO4)cc(OC)c1O	active: -98.7%
Cc1ccc(O)c(/C=N/NC(=O)Cc2ccc(Cl)cc2)c1	active: -99.4%
COc1ccccc1-c1csc(-n2ncc(C#N)c2N)n1	inconclusive: -41.1%
COc1ccccc1N(C)S(=O)(=O)c1ccc(Cl)c(C(=O)NC2=NCCS2)c1	inconclusive: -48.7%
NC(c1csc(Nc2cc(NCCCO)ncn2)n1)c1ccccc1Cl (configuration not stated)	inactive: -25.4%
Cc1ccc(N2C(=O)CS(=O)C(c3ccccc3)C2=O)cc1C (configuration not stated)	inconclusive: -42.5%
CN1CCc2c(n(CC(O)CN(CCO)CCO)c3ccccc23)C1=O (configuration not stated)	inconclusive: -51.6%
CCc1cccc(OCCOCCN2CCCC2)c1	inconclusive: -57%
Cc1cccc(-c2nc(CSCC(=O)N3CCN(c4cccc(C)c4C)CC3)c(C)o2)c1	active: -64.9%
CCC1(O)CC(C(=O)OC)=NN1C(=O)c1ccccc1 (configuration not stated)	inconclusive: -46.4%
COc1cc(C2CC(=O)Nc3c2c(C)nn3-c2nncc(-c3ccccc3)n2)cc(OC)c1OC (configuration not stated)	inactive: 2.28%
COc1ccc(/C=C/C(=O)NCC(=O)N/N=C(/CCC(=O)O)c2ccccc2)cc1	inconclusive: -44.4%
O=C(NCCn1cc(SCc2ccccc2)c2ccccc21)c1ccccc1F	inactive: 10.5%
CC(=O)NC(Cc1ccc(F)c(F)c1)C(=O)NC1CCN(c2c(Cc3ccccc3)c(C)nc3ncnn23)CC1 (configuration not stated)	inconclusive: -45.3%
O=C(NC1CCCCC1)C(c1c(F)cccc1Cl)N(C(=O)c1csnn1)C1CC1 (configuration not stated)	inactive: -29.8%
CC(=O)Nc1ccc(S(=O)(=O)N2CCN(CC3CC4C=CC3C4)CC2)cc1 (configuration not stated)	inconclusive: -58.2%
Oc1cccc(C(Nc2nccs2)c2ccc3cccnc3c2O)c1 (configuration not stated)	active: -93.4%
COc1ccc(-c2c(S(=O)(=O)c3ccccc3)cnn2-c2ccccc2)cc1	inconclusive: -57.6%
Cc1[nH]c2ccc(C(=O)OC(C)C(=O)N(C)C3CCCCC3)cc2c1C (configuration not stated)	inconclusive: -41.2%
O=C(O)C1CCCN(S(=O)(=O)c2ccc(Cl)s2)C1 (configuration not stated)	inactive: -27.9%

SMILES	activity change, negative = inhibition
CCOc1ccc(C(=O)NCC(=O)N2CCC3CCCCC3C2)cc1OCC (configuration not stated)	inactive: 1.9%
CCOC(=O)N1CCN(c2ccncc2S(=O)(=O)N2CCCCC2)CC1	inconclusive: -43.2%
Cc1ccc(S(=O)(=O)c2nc(Nc3ccccc3C#N)sc2Cl)cc1	inconclusive: -52%
CCOC(=O)C(=O)c1c(-c2ccccc2)nc2ccccn12	inconclusive: -49.3%
Cc1nc2c(Cl)cccc2c2c1CC(CBr)O2 (configuration not stated)	inconclusive: -51%
CCN(CC(=O)Nc1ccc(NC(C)=O)cc1)C(=O)c1ccc2ccccc2c1	inactive: 4.22%
CCC(C)NC(=O)CSc1ccc(S(=O)(=O)N(C)C2CCCCC2)cn1 (configuration not stated)	inactive: -4.84%
CCOC(=O)C1CCCN(c2oc(-c3ccc(F)cc3)nc2C#N)C1 (configuration not stated)	inconclusive: -42.6%
COc1ccc(-c2cnc(N)nc2-c2ccc(OC)cc2)cc1	inactive: -4.35%
CCOC(=O)C1(CC2CCCCO2)CCN(C(=O)Nc2ccccc2SC)CC1 (configuration not stated)	inconclusive: -47%
COc1ccc(Nc2cc(C)c3cc(NC(=O)Cc4c(F)cccc4Cl)ccc3n2)cc1	inconclusive: -52%
COc1ccc(C(=O)NC2CC(C)(C)Cc3c2cnn3-c2ccccc2C)c(OC)c1OC (configuration not stated)	inconclusive: -51%
Cc1cc(C)c2nc(NC(=O)c3ccc(OCC4CCCO4)cc3)sc2c1 (configuration not stated)	inconclusive: -58.8%
COc1ccccc1CNC(=O)CS(=O)Cc1nc(-c2ccc(OC)c(OC)c2)oc1C (configuration not stated)	inactive: 1.3% and inactive: 12.5%
C[C@H](O)[C@@H]1C(=O)N2CCc3ccc(N4CCN(C)CC4)cc3[C@@H]2C[C@@H]1N(C)C(=O)Nc1cc(Cl)cc(Cl)c1	inactive: -3.9%
O=[N+]([O-])c1ccc(/C=N/N=C/c2ccc([N+](=O)[O-])o2)o1	active: -99.5%
Cc1cc(C)c(C)c(OCCNCc2ccccc2)c1	inactive: 25%
N#Cc1cc(N)c(Nc2ccccc2)cc1C#N	inconclusive: -51.2%
Cc1occc1C(=O)N1CCC2(CCCN(Cc3ccc(F)c(F)c3)C2)C1 (configuration not stated)	inconclusive: -49.4%
Cc1oc2c(CN3CCCC(C)C3)c(O)ccc2c(=O)c1-c1ccccc1 (configuration not stated)	inactive: -31.7%
CC1Cc2cc(-c3csc(NC(=O)Cc4ccccc4)n3)ccc2N1S(C)(=O)=O (configuration not stated)	active: -97.7%
Cc1nn(C)c(C)c1NC(=O)CSc1nc(C2CC2)nc2c1cnn2-c1ccccc1	inconclusive: -46.7%

SMILES	activity change, negative = inhibition
CCOC(=O)CSc1nnc(Cc2ccc(OC)cc2)n1-c1ccccc1	active: -109%
CCn1cc(C(=O)NCCc2ccccc2)c(=O)c2cc(S(=O)(=O)N3CCCC3)ccc21	inconclusive: -56.2%
CCCCN(CCCC)CCNC(=O)c1cc(=O)[nH]c2ccc(S(=O)(=O)N3CCCCCC3)cc12	inconclusive: -41.1%
C#CCOCCOCCOCCNc1nc(N2CCN(C(=O)Cn3cc(CCO)nn3)CC2)nc(N2CCN(C(=O)Cn3cc(CC(C)O)nn3)CC2)n1 (configuration not stated)	inactive: 40.9%
COc1cccc(CC(NC(C)=O)C(=O)NC2CCN(C(=O)c3ccc(Cl)cc3)CC2)c1OC (configuration not stated)	inactive: 31%
CC(C)(C)c1ccc(C(=O)NNc2cc(Cl)cc(Cl)c2)cc1	inconclusive: -46%
CC(C)c1ccc(NC(=O)CSc2nc(=O)n(Cc3cccnc3)c3c2CCC3)cc1	active: -107%
Cc1ccc(Cl)cc1NC(=O)CSc1nc(C)c(C)c(C)c1C#N	active: -84.6%
Cc1onc(-c2ccccc2Cl)c1C(=O)N(C)C1CCCCC1	active: -65.9%
CCC(=O)Oc1ccc(NC(=O)CSCc2ccccc2)cc1	active: -72.8%
COc1cccc(/C=C/c2ccc3ccccc3n2)c1OC(C)=O	active: -95.1%
CCCCOC(=O)n1c(=O)oc2ccccc21	active: -101%
O=C(CN1CCOCC1)Nc1ncc(Cc2cccc(Cl)c2)s1	inconclusive: -49.7%
COCCCn1c(O)c(/C=C2\N=C(C#N)C(=Nc3ccc(C)cc3)O2)sc1=S	inconclusive: -49.8%
O=C(NCc1ccc(-c2nc3ccccc3s2)cc1)c1cc2ccccc2o1	inconclusive: -51.8%
Cc1ccc2oc(Nc3nc(-c4ccccc4)cc(=O)[nH]3)nc2c1	active: -101%
COc1ccc(CC(=O)c2cc(OC)c(OC)cc2CC(=O)O)cc1OC	inactive: -7.02%
O=C(NCCc1ccccc1)Nc1cccc(Cl)c1	inactive: -2.28%
Cc1ccc(C(=O)OCC(=O)NCCN2C(=O)CSC2=O)cc1[N+](=O)[O-]	inactive: -2.68%
Cc1cccc(C(=O)Nc2ccccc2SCC2CSc3nc4ccccc4c(=O)n32)c1 (configuration not stated)	active: -74.8%
COc1ccccc1CNC(=O)CN1C(=O)CCc2cc(S(=O)(=O)N3CCOCC3)ccc21	inactive: 2.98%

Fetched one by one from the list above:
SMILES	activity change, negative = inhibition
CCCCOC(=O)n1c(=O)oc2ccccc21	active: -101%
Cc1cccc(C(=O)Nc2ccccc2SCC2CSc3nc4ccccc4c(=O)n32)c1 (configuration not stated)	active: -74.8%
CCOC(=O)CSc1nnc(Cc2ccc(OC)cc2)n1-c1ccccc1	active: -109%
C#CCOCCOCCOCCNc1nc(N2CCN(C(=O)Cn3cc(CCO)nn3)CC2)nc(N2CCN(C(=O)Cn3cc(CC(C)O)nn3)CC2)n1 (configuration not stated)	inactive: 40.9%
CCC(=O)Oc1ccc(NC(=O)CSCc2ccccc2)cc1	active: -72.8%
